{
  "source": "paper PMC5687603",
  "binders": {"B1": {"name": "S-formylglutathione hydrolase (human, HEK293) (enzyme, UniProt P10768 1-282)", "chain": "MALKQISSNKCFGGLQKVFEHDSVELNCKMKFAVYLPPKAETGKCPALYWLSGLTCTEQNFISKSGYHQSASEHGLVVIAPDTSPRGCNIKGEDESWDFGTGAGFYVDATEDPWKTNYRMYSYVTEELPQLINANFPVDPQRMSIFGHSMGGHGALICALKNPGKYKSVSAFAPICNPVLCPWGKKAFSGYLGTDQSKWKAYDATHLVKSYPGSQLDILIDQGKDDQFLLDGQLLPDNFIAACTEKKIPVVFRLQEGYDHSYYFIATFITDHIRHHAKYLNA"}, "B2": {"name": "S-formylglutathione hydrolase (mouse, mIMCD) (enzyme, UniProt Q9R0P3 1-282)", "chain": "MALKQISSNRCFGGLQKVFEHSSVELKCKMRFAVYLPPQAESGKCPALYWLSGLTCTEQNFISKSGYQQAASEHGLVVIAPDTSPRGCNIKGEDDSWDFGTGAGFYVNATEDPWKANYRMYSYVTEELPQLINANFPVDPQRMSIFGHSMGGHGALICALKNPGKYRSVSAFAPICNPVLCSWGKKAFSGYLGPDESKWKAYDATCLVKAYSGSQIDILIDQGKDDEFLSNGQLLPDNFIAACTEKKIPVVFRLQEGYDHSYYFIATFIADHIRHHAKYLNA"}, "B3": {"name": "S-formylglutathione hydrolase (mouse, kidney) (enzyme, UniProt Q9R0P3 1-282)", "chain": "B2 chain"}},
  "key": {"[1]": {"molecular_target": "T1, de-glycosylated short-form Klotho, triple mutant N161A/N285A/N346A (mouse) (UniProt O35082)", "T1 sequence": "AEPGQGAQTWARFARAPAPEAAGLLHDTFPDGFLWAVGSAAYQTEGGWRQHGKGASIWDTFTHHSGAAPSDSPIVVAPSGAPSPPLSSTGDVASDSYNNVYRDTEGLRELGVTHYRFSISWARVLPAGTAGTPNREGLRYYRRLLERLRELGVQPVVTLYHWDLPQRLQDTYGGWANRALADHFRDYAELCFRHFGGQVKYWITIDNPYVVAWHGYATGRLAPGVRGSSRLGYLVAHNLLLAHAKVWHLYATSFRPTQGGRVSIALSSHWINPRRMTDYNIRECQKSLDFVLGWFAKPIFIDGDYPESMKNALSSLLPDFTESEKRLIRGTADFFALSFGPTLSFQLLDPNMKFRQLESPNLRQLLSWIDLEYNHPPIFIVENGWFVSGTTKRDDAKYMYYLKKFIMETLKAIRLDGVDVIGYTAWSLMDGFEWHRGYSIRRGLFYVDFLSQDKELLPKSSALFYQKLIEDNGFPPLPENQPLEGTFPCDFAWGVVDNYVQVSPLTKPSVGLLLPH", "test": "co-IP; lysates of HEK293 cells expressing recombinant Skl, Klotho or Flag antibody-conjugated beads (Direct IP kit), 4°C overnight; western blot with Klotho and FGH (ESD) antibodies"}, "[2]": {"molecular_target": "T2, recombinant mouse short-form Klotho with C-terminal Flag and 6xHis (HEK293) (mouse) (UniProt O35082)", "T2 sequence (chain, N-glycosylated at N161, N285 and N346)": "T1 sequence with A127N, A251N, A312N", "test": "co-IP; lysates of HEK293 cells expressing recombinant Skl, Klotho or Flag antibody-conjugated beads (Direct IP kit), 4°C overnight; western blot with Klotho and FGH (ESD) antibodies"}, "[3]": {"molecular_target": "T3, recombinant mouse short-form Klotho with C-terminal Flag and 6xHis (mIMCD) (mouse) (UniProt O35082)", "T3 sequence": "T1 sequence with A127N, A251N, A312N", "test": "co-IP; lysates of mIMCD cells expressing recombinant Skl, Klotho or Flag antibody-conjugated beads (Direct IP kit), 4°C overnight; western blot with Klotho and FGH (ESD) antibodies"}, "[4]": {"molecular_target": "T4, short-form Klotho, endogenous in mouse kidney (mouse (endogenous in kidney)) (UniProt O35082)", "T4 sequence": "T1 sequence with A127N, A251N, A312N", "test": "co-IP; kidney lysates of wild-type and KL-/- mice, Klotho antibody-conjugated IP-Direct beads; western blot for Klotho and FGH"}},
  "note": "Positions count from the first letter of the chain named. These are yes or no findings as the source states them, for the method shown. Binding seen in cells or lysates may run through a third protein. Some entries that bind do so weakly or less than the wild type. For some of these results: Sequences can lack the tags named with a protein.",
  "data": [
    {"binder": "B1", "values": [
      {"measurement": "binding", "setting": "[1]", "value": "binds"},
      {"measurement": "binding", "setting": "[2]", "value": "binds"}
    ]},
    {"binder": "B2", "values": [
      {"measurement": "binding", "setting": "[3]", "value": "binds"}
    ]},
    {"binder": "B3", "values": [
      {"measurement": "binding", "setting": "[4]", "value": "binds"}
    ]}
  ]
}
